Our source for the binding values is paper PMC9499541, “Ait1 regulates TORC1 signaling and localization in budding yeast” (eLife, 2022).

Chains of the proteins cited; added tags and fusions are not shown. Lines headed by an entry give the natural chain unless they say otherwise; changes in a name come on top.
UniProt P38873: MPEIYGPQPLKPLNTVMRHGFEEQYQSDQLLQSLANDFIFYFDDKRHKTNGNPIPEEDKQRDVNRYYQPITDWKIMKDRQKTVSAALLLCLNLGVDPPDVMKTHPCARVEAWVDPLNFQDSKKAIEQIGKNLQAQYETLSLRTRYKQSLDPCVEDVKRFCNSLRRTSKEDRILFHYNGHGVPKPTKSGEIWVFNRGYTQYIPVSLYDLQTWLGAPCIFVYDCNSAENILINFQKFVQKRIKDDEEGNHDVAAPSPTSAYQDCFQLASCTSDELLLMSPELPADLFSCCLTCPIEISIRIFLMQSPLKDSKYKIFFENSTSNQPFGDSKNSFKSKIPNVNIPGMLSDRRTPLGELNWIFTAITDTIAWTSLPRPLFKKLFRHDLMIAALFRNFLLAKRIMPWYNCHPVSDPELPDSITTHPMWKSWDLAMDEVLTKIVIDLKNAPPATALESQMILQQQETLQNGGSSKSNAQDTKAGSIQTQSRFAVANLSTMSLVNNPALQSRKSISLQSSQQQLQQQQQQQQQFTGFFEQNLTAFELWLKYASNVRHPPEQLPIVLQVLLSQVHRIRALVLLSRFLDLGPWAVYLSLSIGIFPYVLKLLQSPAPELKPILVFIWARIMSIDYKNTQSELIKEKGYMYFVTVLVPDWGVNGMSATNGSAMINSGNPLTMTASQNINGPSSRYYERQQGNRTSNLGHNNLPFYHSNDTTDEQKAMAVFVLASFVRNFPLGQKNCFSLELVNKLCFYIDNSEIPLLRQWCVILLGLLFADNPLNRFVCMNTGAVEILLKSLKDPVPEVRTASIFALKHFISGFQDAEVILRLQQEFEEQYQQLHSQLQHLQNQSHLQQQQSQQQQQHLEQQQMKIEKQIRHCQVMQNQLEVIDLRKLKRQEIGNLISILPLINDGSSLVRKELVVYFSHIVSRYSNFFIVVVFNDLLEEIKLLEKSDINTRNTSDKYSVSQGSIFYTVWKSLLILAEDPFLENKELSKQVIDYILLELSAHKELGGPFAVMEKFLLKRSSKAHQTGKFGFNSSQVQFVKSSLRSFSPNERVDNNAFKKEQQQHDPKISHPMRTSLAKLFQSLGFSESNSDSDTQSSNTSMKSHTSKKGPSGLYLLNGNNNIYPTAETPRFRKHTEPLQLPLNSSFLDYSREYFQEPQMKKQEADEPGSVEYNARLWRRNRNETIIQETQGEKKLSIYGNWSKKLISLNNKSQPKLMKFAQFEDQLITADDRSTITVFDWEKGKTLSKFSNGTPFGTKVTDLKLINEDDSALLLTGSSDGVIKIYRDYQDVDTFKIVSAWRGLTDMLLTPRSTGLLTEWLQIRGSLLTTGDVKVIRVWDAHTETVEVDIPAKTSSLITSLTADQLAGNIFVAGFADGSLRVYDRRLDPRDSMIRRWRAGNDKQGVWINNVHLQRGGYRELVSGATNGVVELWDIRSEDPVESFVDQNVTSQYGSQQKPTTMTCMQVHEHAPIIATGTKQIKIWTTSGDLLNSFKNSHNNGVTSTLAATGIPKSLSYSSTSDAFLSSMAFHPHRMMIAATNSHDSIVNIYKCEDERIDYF
UniProt Q00582: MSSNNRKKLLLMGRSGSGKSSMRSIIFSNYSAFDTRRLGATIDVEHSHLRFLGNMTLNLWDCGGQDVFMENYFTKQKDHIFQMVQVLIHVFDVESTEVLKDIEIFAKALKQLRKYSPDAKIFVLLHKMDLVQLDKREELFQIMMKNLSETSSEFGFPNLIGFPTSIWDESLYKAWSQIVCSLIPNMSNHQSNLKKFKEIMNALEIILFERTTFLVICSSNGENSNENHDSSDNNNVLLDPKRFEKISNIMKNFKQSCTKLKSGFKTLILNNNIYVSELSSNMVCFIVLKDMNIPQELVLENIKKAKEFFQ
UniProt P38742: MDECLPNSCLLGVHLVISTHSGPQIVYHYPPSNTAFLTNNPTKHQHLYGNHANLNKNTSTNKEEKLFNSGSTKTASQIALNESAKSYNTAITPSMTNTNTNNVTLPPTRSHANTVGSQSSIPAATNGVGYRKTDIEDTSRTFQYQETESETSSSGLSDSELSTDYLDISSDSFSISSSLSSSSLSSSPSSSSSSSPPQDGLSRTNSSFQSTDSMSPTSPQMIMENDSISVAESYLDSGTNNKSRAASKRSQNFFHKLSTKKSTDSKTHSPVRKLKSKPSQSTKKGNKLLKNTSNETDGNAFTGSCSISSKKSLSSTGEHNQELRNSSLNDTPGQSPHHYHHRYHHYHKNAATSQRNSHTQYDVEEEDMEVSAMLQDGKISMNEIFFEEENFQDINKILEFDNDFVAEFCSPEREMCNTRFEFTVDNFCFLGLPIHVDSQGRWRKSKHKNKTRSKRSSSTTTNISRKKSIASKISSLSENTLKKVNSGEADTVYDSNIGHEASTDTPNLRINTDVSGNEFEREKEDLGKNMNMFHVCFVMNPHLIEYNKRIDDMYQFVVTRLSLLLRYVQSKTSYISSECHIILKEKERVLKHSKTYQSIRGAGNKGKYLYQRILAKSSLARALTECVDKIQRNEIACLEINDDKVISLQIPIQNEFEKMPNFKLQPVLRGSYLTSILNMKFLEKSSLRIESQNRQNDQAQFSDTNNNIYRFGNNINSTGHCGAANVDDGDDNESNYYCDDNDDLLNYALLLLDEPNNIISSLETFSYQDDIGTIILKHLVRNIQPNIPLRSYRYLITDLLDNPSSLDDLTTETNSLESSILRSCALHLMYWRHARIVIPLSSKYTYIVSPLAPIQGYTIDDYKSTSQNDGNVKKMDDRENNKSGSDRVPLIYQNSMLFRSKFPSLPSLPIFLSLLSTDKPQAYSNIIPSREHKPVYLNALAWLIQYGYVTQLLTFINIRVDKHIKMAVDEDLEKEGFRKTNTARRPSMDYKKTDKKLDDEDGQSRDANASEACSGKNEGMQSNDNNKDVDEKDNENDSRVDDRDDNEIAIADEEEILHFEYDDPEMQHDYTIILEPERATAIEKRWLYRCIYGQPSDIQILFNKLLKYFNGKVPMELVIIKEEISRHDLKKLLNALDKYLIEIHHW
UniProt Q02948: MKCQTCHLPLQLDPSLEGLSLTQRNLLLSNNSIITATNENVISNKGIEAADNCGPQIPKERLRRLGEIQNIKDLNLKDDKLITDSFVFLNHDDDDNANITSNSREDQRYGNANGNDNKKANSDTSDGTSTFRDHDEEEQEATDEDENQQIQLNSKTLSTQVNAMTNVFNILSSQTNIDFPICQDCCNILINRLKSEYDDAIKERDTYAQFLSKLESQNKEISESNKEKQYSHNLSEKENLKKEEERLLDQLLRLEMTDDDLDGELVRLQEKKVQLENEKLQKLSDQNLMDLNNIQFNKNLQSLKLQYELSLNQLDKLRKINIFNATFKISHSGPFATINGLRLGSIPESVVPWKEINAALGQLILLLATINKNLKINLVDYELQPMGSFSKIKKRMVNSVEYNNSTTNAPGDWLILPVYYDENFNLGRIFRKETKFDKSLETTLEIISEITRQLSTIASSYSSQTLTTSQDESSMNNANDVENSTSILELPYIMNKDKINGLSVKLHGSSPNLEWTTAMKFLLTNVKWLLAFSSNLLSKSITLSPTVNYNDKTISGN
UniProt P47170: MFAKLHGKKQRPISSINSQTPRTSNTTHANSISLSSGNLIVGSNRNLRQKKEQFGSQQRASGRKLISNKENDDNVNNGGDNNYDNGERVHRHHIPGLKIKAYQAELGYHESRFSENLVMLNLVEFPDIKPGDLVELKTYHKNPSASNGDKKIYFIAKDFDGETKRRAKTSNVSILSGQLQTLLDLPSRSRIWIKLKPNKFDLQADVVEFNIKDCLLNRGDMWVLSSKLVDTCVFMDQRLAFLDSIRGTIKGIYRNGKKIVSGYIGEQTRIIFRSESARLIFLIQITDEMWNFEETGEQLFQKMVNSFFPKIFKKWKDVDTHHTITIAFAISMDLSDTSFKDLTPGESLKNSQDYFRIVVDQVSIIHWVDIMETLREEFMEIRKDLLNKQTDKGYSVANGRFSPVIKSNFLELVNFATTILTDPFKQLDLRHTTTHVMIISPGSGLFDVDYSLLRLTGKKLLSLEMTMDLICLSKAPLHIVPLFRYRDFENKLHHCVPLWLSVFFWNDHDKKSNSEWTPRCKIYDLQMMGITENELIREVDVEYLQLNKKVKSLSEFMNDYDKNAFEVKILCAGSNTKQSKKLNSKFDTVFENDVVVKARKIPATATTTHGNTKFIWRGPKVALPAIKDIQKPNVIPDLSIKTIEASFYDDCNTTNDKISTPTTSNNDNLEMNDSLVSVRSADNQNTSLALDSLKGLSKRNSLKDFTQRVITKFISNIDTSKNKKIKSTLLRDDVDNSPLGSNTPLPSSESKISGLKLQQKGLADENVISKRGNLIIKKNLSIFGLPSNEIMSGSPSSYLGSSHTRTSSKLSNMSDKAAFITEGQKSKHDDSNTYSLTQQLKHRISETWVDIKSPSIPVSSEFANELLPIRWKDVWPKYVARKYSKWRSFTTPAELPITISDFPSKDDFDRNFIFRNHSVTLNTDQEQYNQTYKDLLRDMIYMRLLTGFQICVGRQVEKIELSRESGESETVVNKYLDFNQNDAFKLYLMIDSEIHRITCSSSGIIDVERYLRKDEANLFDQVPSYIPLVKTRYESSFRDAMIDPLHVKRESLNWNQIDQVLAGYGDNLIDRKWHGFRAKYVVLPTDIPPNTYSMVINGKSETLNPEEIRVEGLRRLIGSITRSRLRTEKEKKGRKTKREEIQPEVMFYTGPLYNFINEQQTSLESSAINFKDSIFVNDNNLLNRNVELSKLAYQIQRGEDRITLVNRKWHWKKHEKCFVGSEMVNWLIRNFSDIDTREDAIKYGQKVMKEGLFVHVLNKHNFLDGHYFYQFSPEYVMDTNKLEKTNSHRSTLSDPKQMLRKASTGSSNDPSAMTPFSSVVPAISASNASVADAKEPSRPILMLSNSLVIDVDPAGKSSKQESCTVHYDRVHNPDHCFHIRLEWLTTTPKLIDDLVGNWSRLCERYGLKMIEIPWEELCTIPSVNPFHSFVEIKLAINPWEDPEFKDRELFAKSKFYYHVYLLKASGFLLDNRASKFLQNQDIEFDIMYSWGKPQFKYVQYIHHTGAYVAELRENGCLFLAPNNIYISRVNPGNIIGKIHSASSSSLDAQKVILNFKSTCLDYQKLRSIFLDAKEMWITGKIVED

This assay deals with Kog1-FLAG (S. cerevisiae) (UniProt P38873). The assay can be described thus: affinity purification with mass spectrometry; Kog1-FLAG captured on anti-FLAG beads from lysate treated with the cleavable crosslinker DSP and 1% digitonin; mock IP from a Kog1-HA strain; 11 experiments in nine conditions (log phase, stress and starvation); crosslinks broken before mass ….

Results are given in words; binding and its absence hold for the method and conditions named. Binding seen in cells or lysates may run through a third protein. Here binding means that the protein was enriched with, or labelled near, the bait; the list need not be complete.

On to Gtr1 (from UniProt Q00582 1-310), for which the binding result is “binds”.

Regarding Npr3 (from UniProt P38742), the binding entry is “binds”.

Consider Vps30 (from UniProt Q02948 1-557), for which the binding entry is “binds”.

As for Iml1 (from UniProt P47170 1-1584), the binding result is recorded as “binds”.

B1: Vnx1 (protein, UniProt P42839 1-908)
chain: MAKNNHISASGNSTSGDHRLKEEVLTPTTSASTPHRIFSVDDDPKEIQNDIRYLEGLHEGLKFALHANKSKRSVSSQSPIVHSSNNTLHHHEHQQHLPPTLESLSSKSHSVPDLNTATPSSPKRMHSSIRELPHDDNDDEDANDDSRFIIHDSHGHDLLIDEINCQSPSHLENNDQASNASSTESFTLRERQDAINETHPFGIRIWKPALYKKHRSVQRTAAQDIHETQLKTITWEVTCSNVLWFILFGFPIAILFYSAAIVVFLLGGGGLVTNSAKEYSKCLYKLANYFLWPFGKMVYLLQDEQYLQEDKDEGISMQQFYNWVTSYSNRLVFHQSQAKFQQREDHPAPATESSSLMPPANTTATPLNSNHPSYNSIRHEIPHAAAQRRYFGRGKWSWGRVLFYTIFHLVLQPILAVLSLCLWLLVFTIPMSNVLWQIMYHCRRHPLALGFKYVENSSQSHENEITQQQLNKNILLCTFRAAGWHYYKYTVDGTNVIVVNLISIVFFTIFDFYVLKNFLHWKTWFTYESSIFILCLTSTIPLAFYIGQAVASISAQTSMGVGAVINAFFSTIVEIFLYCVALQQKKGLLVEGSMIGSILGAVLLLPGLSMCGGALNRKTQRYNPASAGVSSALLIFSMIVMFVPTVLYEIYGGYSVNCADGANDRDCTFSHPPLKFNRLFTHVIQPMSISCAIVLFCAYIIGLWFTLRTHAKMIWQLPIADPTSTAPEQQEQNSHDAPNWSRSKSTCILLMSTLLYAIIAEILVSCVDAVLEDIPSLNPKFLGLTIFALIPNTTEFLNAISFAIHGNVALSMEIGSAYALQVCLLQIPSLVIYSIFYTWNVKKSMINIRTQMFPLVFPRWDIFGAMTSVFMFTYLYAEGKSNYFKGSMLILLYIIIVVGFYFQGALSE
With B1, the binding entry was “binds”.

B2: Syg1 (protein, UniProt P40528 1-902)
chain: MKFADHLTESAIPEWRDKYIDYKVGKKKLRRYKEKLDAEEEQSSSYRSWMPSVSVYQTAFQQREPGKSRSDGDYRSGPAFKKDYSALQREFVADFIEDWLISFQLSKCNEFYLWLLKECDKKFEVLQSQLHYYSLQKNYERDNLNRSSSNVDMSTSLYAAGLAGRSDSRVNSIDSDSRSVMYGSMPCTKEAKKPRLSLLAYCQKVLKDNRLLPSWPKRGFSLLQDLRQDASSRGRETFAFGASFLETMTTTQARNLLSNAIIEYYLYLQLVKSFRDINVTGFRKMVKKFDKTCHTRELTTFMSYARTHYTLFKHADANVQLVAQKMQQITSSQPTPTSELSSAQRDKEPITWLETQITEWFTTALTNSPKDRKHNTHKLKKLTIQYSISEQMVHRNNRSIVQMLVVGLGIGVSMTLITYTLYLGISSEETSFTHKILFPLWGGWYMVLLIAFLFLVNCFIWHRTGINYRFIMLGEIQSKNGTQFFNNDFATSKIPLKLYFLTFFIVPCAVCSMLSFALEKLTPLGFLYIGIVSFLFLCPSGLIPYWDKVVHTRKWLVVTLIRLMMSGFFPVEFGDFFLGDIICSLTYSIADIAMFFCVYSHTPNNLCGSSHSRAMGVLSCLPSYWRFMQCLRRFADSGDWFPHLLNAAKYTLGIAYNATLCAYRLSDRSEQRRTPFIVCATLNSILTSAWDLVMDWSFAHNTTSYNWLLRDDLYLAGKKNWENGSYSFSRKLVYYFAMIWDILIRFEWIVYAIAPQTIQQSAVTSFILALLEVLRRFVWIIFRVENEHVANVHLFRVTGDAPLPYPIAQVGDDSMDSSDLGSKAFSSLNDIPITPSHDNNPHSFAEPMPAYRGTFRRRSSVFENISRSIPWAHATDFQRPTVNTVDDRSPETDSESEVESIM
As to B2, the binding result is “binds”.

B3: Seh1 (protein, UniProt P53011 1-349)
chain: MQPFDSGHDDLVHDVVYDFYGRHVATCSSDQHIKVFKLDKDTSNWELSDSWRAHDSSIVAIDWASPEYGRIIASASYDKTVKLWEEDPDQEECSGRRWNKLCTLNDSKGSLYSVKFAPAHLGLKLACLGNDGILRLYDALEPSDLRSWTLTSEMKVLSIPPANHLQSDFCLSWCPSRFSPEKLAVSALEQAIIYQRGKDGKLHVAAKLPGHKSLIRSISWAPSIGRWYQLIATGCKDGRIRIFKITEKLSPLASEESLTNSNMFDNSADVDMDAQGRSDSNTEEKAELQSNLQVELLSEHDDHNGEVWSVSWNLTGTILSSAGDDGKVRLWKATYSNEFKCMSVITAQQ
Take B3: the binding result is “binds”.

B4: Vsb1 (protein, UniProt P53273 1-1036)
chain: MGRTIRRRRSNSSLSEAISVSLGINQDSSVNKMHRASVSAMSPPLCRSYMSGFFTGGNSPMINNLSDSKLPISNKQHPKVIHGSENLHRQTAQLSNEFCSSSVEENSPTIKDYMDIIGNGDRKDDQSMRTIEENIDEEYSDEYSRLLLSPASSNVDDDRNRGLQNSSLPELEDGYAGGYQSLRPSHNLRFRPRNLWHMCTSFPSKFAHYLPAAVLGLLLNILDALSYGMIIFPITEPVFSHLGPTGISMFYISTIISQAVYSGGWSSFPSGIGSEMIEITPFYHTMALAIKEALAGNDDEIITTTIFCYVISSMLTGVVFYALGKLRLGKIVGFFPRHILIGCIGGVGYFLIITGIEVTTRVAKFEYSWPFFSGLFTDYDTLAKWLLPVLLTVVLIGTQRYFKNSLVLPSFYILTLVLFHFIVAIIPTLSLDALRQAGWIFPIANSDSKWYDHYRLFNVHKVHWSLVLQQIPTMMALTFFGILHVPINVPALAMSLQMDKYDVDRELIAHGYSNFFSGLLGSVQNYLVYTNSVLFIRAGADSPFAGFLLIALTICIMIIGPVIISFIPICIVGSLIFLLGYELLVEALVDTWNKLNRFEYLTVVIIVFTMGIFDFVLGIIVGILIACFSFLVDSTKLQTINGEYNGNVARSTVYRDYVQTKFLDGIGEQIYVLKLQNLLFFGTIISIEEKIERLLQISNKDATKRRIKYLILDFKNINADNIDYSAAEGFNRIKRFTETKRIKLIISSIKERDRIYNAFNNVGLLNDVELFADLNSALEWCENEFLFQYKQLRKKAKERLEEGKQNNVVSAVIAATKNKKIDTIGNGLNRGSNGDTARNLMSLPTNTPRNYQILSVAQNVFVNDEQAVKNFKKEYKDDEPVLPILLFALKQYRPDIISEVQKVREKEIKFWAQLCPYFTRRRLASQSHLLHADNIFFLVETGMLKATYELPQGTLYEIFSNGTCFGKIIAPGNAMPREQKLTIETETDSVLWVIDSSSLNKLKEDNLALYVEVALMVMCIKDTRFKELLGYTLVSA
Take B4: the binding entry was “binds”.

B5: Sea2/Rtc1 (protein, UniProt Q08281 1-1341)
chain: MSLSPHVENASIPKGSTPIPKNRNVSSIGKGEFLGSSSSNNSSFRMNHYSNSGQPSVLDSIRRPNLTPTFSYSNGVYMPESHRTSSFNDSYLPYDKNPYAKTTGSMSNKSNMKIKTKKNAINTNTRKSSGLIYTTKVDKELSSIDKVNDPNINGLVCAGKTHLGLYKFSPSDRSIKCVHDFITPNSNTSTRGTTSLLPKLSKRTRQNKFSTIADVKTGFNNYKNCIAVCNNSTAISIYDLNKSSSIDNPLITSLCEHTRSINSFDFNMVESNLIISGGQDSCVKIWDLRSNKSKSSNRSDISINTASDSIRDVKWMPGYNFASKNDQGSSTYGNLKSGYKFASIHDSGYLLKFDLRQPAQYEKKLNAHTGPGLCLNWHPNQEYIATGGRDGKCCLWFVGDNANAAENTVLNYGNSPSLHAPNTSLNNSGSLAFPKLTINTGYPVTKLKFKPAYSSNIYNSLLGISSMGDEAEVRIYSLARKYIPKHVLLSETPSLGLVWWDENLIFNIDKGTRINGWDINKEPTVLENLSKNTTTWRDLDGNGLLSVDQEIGSYEVVEPELQPTSSTTCKKHPGTIKNPKNGNPENQGIIGGIKKGFSHTGLTSFTPERPPTLKAGPTFSTKSLTLASGASSFNSSSASLTSLTPQTENREEIAIEPPCIITLDIPQIFNNIRLTKIAHSRKKNVISESSSMKNSPVEKFKYLARQLKFSYIREHNVSDSADTAYKNDIENIDVVKNATETHGDNTTTTNNNDDGDDDDDDDDDDKIIESHLLKKYNFPENNTWATLMNEKVNNKKSKRNSSSSREFDEKDVRSSISSISASRQSHDRARKIDKNVEAELQEKIQTLVDLISIATHNASVYLSIDDLTNFKIWILIRDSLLWDLKWMTSSQISSDNASNMDANESSDFEAGENLKTGKEFPEEDGAGTSGAESLVEERPQAFRANSDEPSDAEKKPVSKLKEQLKNTEIIPYAQPNEDSDEVLTKLKELQNQRLESRTKMGETVSDDVIIEEDEHEHQEEEQPHDSPTKSAQFHASPIAKSIPILQKREHRKSFIDTFMLHSPNGYNGDTDIGNEDDNISPRFTYNSVSPRSKVSSLQSYATTTSQLETFKKLSSHTAPIIGSPRHAPSRPDSIGREQLSSSLTKKLAKCKKIIADPPWDTKKLIKQLYNQATETGNVVLTVNILFLFQTIYQITEIDIAKDAIAHFLLLLHRYELFGIAADVLKYCPFEDIMGSEGDQSSIRLFCERCGELITNESSKEKLRAEAQQTGNKKIMDKFGYWYCDSCKKKNTSCVLCERPLKKLTMVILPCGHEGHFQCIQEWFLDENEQECPGGCPGVAFI
Regarding B5, the binding result is reported as “binds”.

B6: Vtc5 (protein, UniProt P38966 1-869)
chain: MKFEDRILNKSIPEWKFYNINYEKLKVAIKKVTAYDYDNPNDSGMEKLLNQCSVAFDQEFQNVNLFVSLKIKEISTRILSVESSIIDFSKGLNKTSRNRFNLRKLKIINAHVDDCNFELQLLSRFLIIQRIALRKLFKKLLNEFPQDSENPLTASEYVTSIRNSESLRNGHEGISFMKLDLDPYLLEVSLIVDVLHDLENKLEDATEPAVEQRSLNRSDESAHTSSSPEANNSSLPASPRSIPLLSNKKTSKMIDSSLEFDTALIDKAENLGRFLLSSEDIEGLKFMLLNIGFRIIDDSIISTSKEILDTTDNINSAGNKSIRSAKSFNDLQHTLSLSKQKNILPSAVQSNEKYVSISILDTVGNEGSPLLLTDDNINQHPNMIVSSTAEDTCIVMCHVGGLRNHVVTNDLLLRDVKNILSAMRSGNDTKNISALINSLDPSPISKIALEWIQSHRLKTIEPKLDFKRTRFISADNGDIYLIALDESITIGNVSTLPFPILEIKKLSRSSGLSQTAINEDNKFKQLMKSVVTNEFQCSLIPPDLTTWKICLELVHSNELQNDLFQLLLRDQYKLNSDDSLSPDEFFQLGKDRLEEEFDLTGPINNSQGSVDSGRRVRIHKKSKQSDNETKKKPIRYWNEFDEQEEDNLDNAFYIDTNGSRSTTDNEESLLLRNSPPDYGFILFSRNFINRTYDFCEKLRNLIRHDKKTSPDLFQNSKHPHCSSTNYGSVASFGSQSTSASYDDVQRYLQYQQQDIEDSQSIYEYRHDEVVTFLYLSALLTSCIMASVCLGIVLSLFRGQSNNEIDLEIQNILIAIIIISLLVSLILICACLLLLFSRFTLAPIWHYVGCFTMFFSVTGTVCYGMIEIFF
With B6, the binding result is given as “binds”.
